Data: PubChem BioAssay AID1259415 (National Center for Advancing Translational Sciences (NCATS), 2018)
Values joined by “and” are separate entries in the source; they are usually repeats but may differ in a detail not shown here. Identical values can stand only once. The whole screen tested about 410,000 compounds, of which about 18,000 (4.4%) were called active. This list was built around the results that the source calls inconclusive (neither active nor inactive); the mix of calls is not that of the screen. Cut-off read from the data, not from the text of the source: active = activity change below about -60%; inconclusive = no clear call, values can overlap the other calls; inactive = above about -39%.

Test: qHTS Assay for inhibitors of the human cytomegalovirus (HCMV)
Details: HFF cells, HCMV-luciferase reporter, 72 h; at 57.5 µM; hits give low values
Outline: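 HFF cells seeded 16 h at 37C, treated with compounds, infected with luciferase-reporter HCMV at MOI 1 PFU/cell; luciferase read at 72 h post infection, normalized to buffer-only and Salinomycin controls.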
% is set by controls: 0 for no effect and ±100 for the full control effect.

| SMILES | activity change, negative = inhibition |
| --- | --- |
| CCC(C)(C)NC(=O)C(c1ccncc1)N(C(=O)Cn1nnc2ccccc21)c1cc2c(cc1C(C)=O)OCO2 (stereo not drawn) | inconclusive: -43.9% |
| CCc1ccc(C(C(=O)NCc2ccc(OC)cc2)N(CCOC)C(=O)Cc2cccs2)cc1 (stereo not drawn) | inconclusive: -58.1% |
| O=C(CC(c1ccccc1)c1ccccc1)NCC1CCCO1 (stereo not drawn) | active: -99.7% |
| Cc1ccc(NC(=O)c2cccc(OCc3c(C)noc3C)c2)cc1S(=O)(=O)Nc1ccccc1Cl | active: -65.9% |
| O=c1n(-c2ccc(Br)cc2)cnn1-c1ncccc1[N+](=O)[O-] | inconclusive: -46.6% |
| O=C(CCSc1ccc(F)cc1)NNC(=O)c1ccccc1Cl | inconclusive: -57.7% |
| CC(C)Nc1nnc(SCC(=O)c2c(N)n(Cc3ccccc3)c(=O)n(C)c2=O)s1 | inactive: -34% |
| Cc1ccc(C(=O)NCc2nnnn2-c2ccc(C)c(C)c2)cc1 | inconclusive: -40.9% |
| NC(N)=NCc1cccc(I)c1 | active: -65.7% |
| COc1cccc(N(CC(=O)NCCSCc2ccco2)S(=O)(=O)c2ccccc2)c1 | inconclusive: -48.2% |
| Cc1ccccc1C(=O)NC(=S)N(CCO)Cc1ccccc1 | inconclusive: -47.7% |
| CCCNS(=O)(=O)c1cc(-c2nnc3c4ccccc4c(C)nn23)ccc1OC | inconclusive: -48.1% |
| CC(C)(C)OC(=O)N1CCC(c2c(C(=O)N3CCN(C(=O)c4ccco4)CC3)cnn2-c2ccc(Cl)cc2)CC1 | inactive: -12.5% |
| CCOc1ccc(C(=O)OCC(=O)NCCNC(=O)COC(=O)c2ccc(OCC)cc2)cc1 | inconclusive: -49.4% |
| CCOc1ccccc1NC(=O)c1ccc2nccnc2c1 | inconclusive: -41.8% |
| CCc1ccc(NCc2cc3ccc(OC)cc3n(CC(=O)Nc3cccc(Cl)c3C)c2=O)cc1 | inactive: 9.39% |
| Cc1cccc(N2CCN(C(=O)c3ccc4nc[nH]c4c3)CC2)c1C | inconclusive: -57.5% |
| CCN(C(=O)COC(=O)C1CCC(C(C)(C)C)CC1)c1c(N)n(Cc2ccccc2)c(=O)[nH]c1=O (stereo not drawn) | inconclusive: -54.7% |
| Cc1cccc2c1-c1sc(C(=O)Nc3cccnc3)cc1CO2 | inconclusive: -43.4% |
| CCC(NC(=O)OC(C)(C)C)C(=O)Oc1cc(C)cc2oc(=O)c3c(c12)CCC3 (stereo not drawn) | inconclusive: -56.9% |
| COc1cc(OC)c(NC(=O)NCc2ccc3c(c2)CCN3C(C)=O)cc1Cl | inconclusive: -57.1% |

| SMILES | activity change, negative = inhibition |
| --- | --- |
| CC(=O)c1cccc(NC(=O)c2sc3nc4c(cc3c2N)CCCC4)c1 | inconclusive: -57.4% |
| COc1ccc(N(CC(=O)Nc2ccc(S(=O)(=O)N3CCOCC3)cc2)S(=O)(=O)c2ccc(F)cc2)cc1 | inactive: -5.94% |
| c1ccc(N2CCN(c3ncnc4[nH]ncc34)CC2)cc1 | inconclusive: -58.2% |
| CC(NC(=O)Nc1ccccc1O)(C(F)(F)F)C(F)(F)F | inconclusive: -40.8% |
| COc1cccc(N2CCN(C(=O)CN3C(=O)NC(C)(c4ccc5ccccc5c4)C3=O)CC2)c1 (stereo not drawn) | inconclusive: -43.7% |
| O=C(/C=C/c1cccc(Cl)c1)c1nc2ccccc2[nH]1 | inactive: 2.69% |
| O=C(c1cccc(C(=O)N2CCN(c3ccc(F)cc3)CC2)c1)N1CCN(c2ccc(F)cc2)CC1 | active: -88.8% |
| Cc1ccc(S(=O)(=O)NCCCn2ccnc2)cc1 | inconclusive: -49.7% |
| CC(C)(C)OC(=O)N1CCC(c2c(C(=O)Nc3ccc4c(c3)OCO4)cnn2-c2ccc(F)cc2F)CC1 | inconclusive: 0% |
| Cc1cc[n+](Cc2ccccc2)cc1 | inconclusive: -47% |
| CCOc1ccc2nc(NC(=O)c3cccc(N4C(=O)CCC4=O)c3)sc2c1 | inconclusive: -44.7% |
| COc1cccc(-n2c(C)nc3c(cnn3-c3ccc(C)cc3)c2=O)c1 | inconclusive: -41.1% |
| CC(C)C(=O)Nc1ccc(NC(=O)c2ccc([N+](=O)[O-])cc2Cl)cc1 | inactive: -26.7% |
| CC1(C(=O)Nc2ccc3c(c2)OCCO3)CCN1C(=O)Cc1ccc(-c2ccccc2)cc1 (stereo not drawn) | inconclusive: -46.3% |
| CC1=C(C)CC(C(=O)NNC(=O)c2ccccc2O)C(C(=O)O)C1 (stereo not drawn) | active: -89.9% |
| COc1ccc(N(CC(=O)NCc2ccc(C)cc2)S(=O)(=O)c2ccccc2[N+](=O)[O-])c(OC)c1 | inconclusive: -52% |
| C/C(=N\NC(=O)c1cccc(F)c1)c1cccc(NC(=O)c2ccc(F)cc2)c1 | inconclusive: -54.4% |
| CCn1cc(S(=O)(=O)c2cccc(C)c2)c(=O)c2cc(F)c(N3CCCCC3C)cc21 (stereo not drawn) | inconclusive: -49.4% |
| COc1ccccc1NS(=O)(=O)c1cc(C(=O)NC2CCN(Cc3ccccc3)CC2)ccc1C | active: -62.3% |
| Cc1oncc1C(=O)NC1CCCCC1 | inconclusive: -40.3% |
| CN1CCc2c(sc3nc(NCCO)n(-c4cccc(Cl)c4)c(=O)c23)C1 | inactive: -39.2% |

| SMILES | activity change, negative = inhibition |
| --- | --- |
| Cc1ccc(NC(=O)CSCc2nc3c(nnn3Cc3ccc(F)cc3)c(=O)[nH]2)c(C)c1 | inconclusive: -45.9% |
| COc1ccc(OC)c(NC(=O)CCn2c(=S)[nH]c3ccccc3c2=O)c1 | inconclusive: -46.6% |
| O=C(CSCc1cccc(Cl)c1)N/N=C/c1ccc(OCC(=O)N2CCCCC2)cc1 | inconclusive: -50.1% |
| COc1cc(OC)cc(C(=O)NC(C(=O)NNC(=O)CN(C)S(=O)(=O)c2ccc(C)cc2)C(C)C)c1 (stereo not drawn) | inactive: 50.7% |
| CC1CCCN(S(=O)(=O)c2ccc(NC(=O)CNC3CCCC3)cc2)C1 (stereo not drawn) | inconclusive: -54.3% |
| Cc1cccc(CS(=O)(=O)c2ncc(Cl)c(C(=O)NCc3ccc4c(c3)OCO4)n2)c1 | active: -77.8% |
| C[C@H](CO)N1C[C@H](C)[C@@H](CN(C)S(C)(=O)=O)Oc2c(NC(=O)C3CCCCC3)cccc2C1=O | inconclusive: -58% |
| CC(=O)c1ccc(NC(=O)CSc2nccn2Cc2ccco2)cc1 | inactive: -3.31% |
| CCCC(O)(c1ccc(OC)cc1)C(CN1CCOCC1)c1ccc(Cl)cc1 (stereo not drawn) | inactive: 16.3% |
| O=C1C(Cl)=C(N2CCN(c3ccccc3[N+](=O)[O-])CC2)C(=O)c2ccccc21 | inconclusive: -50.6% |
| O=[N+]([O-])c1cccnc1Sc1ccccc1Cl | inconclusive: -54% |
| CC(C)(O)c1cc2ccc(C#CCCN3C(=O)c4ccccc4C3=O)cc2c(=O)o1 | inconclusive: -41.5% |
| O=S(=O)(NCC1CC1)c1cc(Cl)cc(Cl)c1 | active: -64.9% |
| O=C(/C=C/c1cccc([N+](=O)[O-])c1)Nc1ccccc1N1CCOCC1 | active: -60.5% |
| CN(Cc1ccccc1)C(=O)C1CCC(CNS(=O)(=O)c2cccc3cccnc23)CC1 (stereo not drawn) | active: -61.9% |
| Cc1ccc(S(=O)(=O)N2CCN(C(=O)COC(=O)COc3ccccc3C(C)C)CC2)c(C)c1 | inactive: -13.3% |
| Cc1onc(-c2c(Cl)cccc2Cl)c1C(=O)N1CCN(c2ccccc2)CC1 | inconclusive: -51.1% |
| COC(=O)C1=C(c2ccc(-c3ccccc3)c(F)c2)C[C@@H]2CC[C@H]1N2C(=O)N1CCC(O)CC1 | inconclusive: -41.2% |
| CCCCN(C)CCCNC(=O)Cn1nc(CC)n2c(cc3sc(C)cc32)c1=O | inactive: -16.8% |
| Cc1cc(N2CCCCC2)nc2ccccc12 | inconclusive: -48.9% |
| COc1ccc(C(=O)N2CCN(C(=O)COc3ccc(Br)cc3)CC2)cc1OC | inactive: 20.8% |

| SMILES | activity change, negative = inhibition |
| --- | --- |
| O=c1[nH]c2ccccc2n1CCCOc1ccccc1 | inactive: 3.08% |
| CCc1ccc2nc(N(Cc3cccnc3)C(=O)c3cccs3)sc2c1 | active: -60.6% |
| COc1ccc(/C=C/C(=O)NCc2cn(C)nc2C)cc1COc1ccc(Cl)cc1Br | inactive: 12% |
| COc1cccc(CN(C)C(=O)c2cc(COc3ccc(-n4cncn4)cc3)on2)c1 | inactive: -30.6% |
| CC(C)C(NC(=O)c1ccccc1)C(=O)OCC(=O)N1CCN(c2ccccc2)CC1 (stereo not drawn) | inconclusive: -41.4% |
| Cc1ccc(-n2ncc(C(=O)NCCCN3CCN(C)CC3)c2C2CCN(C(=O)OC(C)(C)C)CC2)c(C)c1 | inactive: -20.1% |
| CCCn1c(NC(=O)C23CC4CC(CC(O)(C4)C2)C3)nc2ccccc21 | inconclusive: -45% |
| Cc1cc(=O)oc2cc(OC(C)C(=O)NCCCn3ccnc3)ccc12 (stereo not drawn) | inconclusive: -42.6% |
| O=[N+]([O-])c1cc([N+](=O)[O-])c(N2CCOCC2)cc1NCc1ccccc1 | inconclusive: -51.4% |
| COc1ccc(CN2CCN(C(=O)c3ccc(S(=O)(=O)NCc4ccco4)cc3)CC2)cc1F | inconclusive: -53.3% |
| Oc1ccc(N=Nc2ccc3c(c2)OCCO3)c2ncccc12 | active: -103% |
| FC(F)(F)c1nnc2c(Sc3ccccc3)nc3ccc(Cl)cc3n12 | active: -103% |
| O=C(CN1C(=O)S/C(=C\c2ccccc2Cl)C1=O)NCCCn1ccnc1 | inconclusive: -44.9% |
| CCc1ccc(NC(=O)c2ccc(F)c(S(=O)(=O)NCCc3ccc(OC)c(OC)c3)c2)cc1 | active: -83.3% |
| O=C(c1ccc2c(c1)N(Cc1ccccc1)CCS2)N1CCCCC1 | inconclusive: -55.3% |
| COc1ccc(OC)c(Nc2c3c(nc4ccccc24)CCC3)c1 | active: -67.3% and active: -79.1% |
| COc1ccc(-c2cn[nH]c2N)cc1OC | inactive: -15.5% |
| CCS(=O)(=O)c1ncc(Cl)c(C(=O)N(Cc2ccccc2)c2ccc(OC)cc2)n1 | active: -99.4% |
| CSCc1ccc(C(=O)Nc2ccc(C(N)=O)cc2)cc1 | inactive: 119% |
| CC1=C(C#N)C(c2ccc(O)cc2)C(C#N)=C(C)N1 | inconclusive: -41.3% |
